{"source": "PubChem BioAssay AID248", "about": "(DTP/NCI, 2004)", "tested_on": "L1210 leukemia ip in BDF1 mice, survival T/C", "test": "NCI In Vivo Anticancer Drug Screen. Data for tumor model L1210 Leukemia (intraperitoneal) in B6D2F1 (BDF1) mice", "conditions": "T/C endpoint: mean survival time, higher T/C = longer survival", "key": {"[1]": {"conditions": "dose: 100.0 mg/kg/injection, schedule: Q01DX009 (ip), vehicle: saline with Tween-80"}, "[2]": {"conditions": "dose: 200.0 mg/kg/injection, schedule: Q01DX009 (ip), vehicle: saline with Tween-80"}, "[3]": {"conditions": "dose: 400.0 mg/kg/injection, schedule: Q01DX009 (ip), vehicle: saline with Tween-80"}, "[4]": {"conditions": "dose: 400.0 mg/kg/injection, schedule: Q04DX003 (ip), vehicle: Klucel (hydroxypropylcellulose) (HPC)"}, "[5]": {"conditions": "dose: 400.0 mg/kg/injection, schedule: Q04DX003 (ip), vehicle: saline"}, "[6]": {"conditions": "dose: 200.0 mg/kg/injection, schedule: Q01DX001 (ip), vehicle: saline"}, "[7]": {"conditions": "dose: 25.0 mg/kg/injection, schedule: Q04DX003 (ip), vehicle: saline"}}, "note": "The list does not hold the whole screen: it gathers tests that were run many times, whatever their T/C, doses with no T/C, and many T/C values between a quarter and a half above the control. Further doses and runs are listed elsewhere. T/C is the treated group as % of the vehicle group. Some doses have a count of surviving animals in place of a T/C: the source holds a T/C of zero for them, seemingly a mark for toxic or unscored doses. Some survivor counts are full or nearly so, which does not show that the dose was tolerated: the source hardly ever lists a survival T/C far under the control, and the zero likely stands for such cases as well. Counts of survivors are from the toxicity check (mostly the fifth day) where no day follows; animals may have died later. Schedule codes are those of the source, taken here to give the interval after Q, in days (D) or hours (H), and the number of doses after X. Some molecules as drawn cover several salts, stereoisomers or complexes of the source; a dose is that of the sample tested. Some doses were run more than once; their values stand side by side, smallest first. Where survival is the endpoint, this PubChem deposit counts one and a half times the control or more as active, and values a quarter to a half above the control carry no call in these data; other NCI protocols may use other cut-offs. Some T/C values carry the count of animals alive at the toxicity check (mostly the fifth day); without a count, all were alive then."}
{"molecule": "COc1ccc2c(c1)N(CC(C)CN(C)C)c1ccccc1S2", "note": "(stereo unspecified)", "values": [{"measurement": "T/C", "setting": "[1]", "result": "133 % of control"}, {"measurement": "survivor count", "setting": "[2]", "result": "5 of 6"}, {"measurement": "survivor count", "setting": "[3]", "result": "4 of 6"}]}
{"molecule": "CC[n+]1c(C)sc2cc3c(cc21)OCO3", "values": [{"measurement": "survivor count", "setting": "dose: 200.0 mg/kg/injection, schedule: Q01DX009 (ip), vehicle: Klucel (hydroxypropylcellulose) (HPC)", "result": "0 of 6"}, {"measurement": "survivor count", "setting": "dose: 200.0 mg/kg/injection, schedule: Q04DX003 (ip), vehicle: Klucel (hydroxypropylcellulose) (HPC)", "result": "2 of 6"}, {"measurement": "survivor count", "setting": "[4]", "result": "0 of 6"}]}
{"molecule": "CCNC(=O)N(C)Cc1ccc(Cl)cc1", "values": [{"measurement": "survivor count", "setting": "[3]", "result": "0 of 6"}]}
{"molecule": "Cc1cccc(NC(=O)OC/C=C/c2ccccc2)c1", "values": [{"measurement": "survivor count", "setting": "[3]", "result": "3 of 3"}]}
{"molecule": "CCCCOC(=O)/C=C/C(=O)[O][Sn]([CH2]CCC)([CH2]CCC)[O]C(=O)/C=C/C(=O)OCCCC", "values": [{"measurement": "survivor count", "setting": "dose: 100.0 mg/kg/injection, schedule: Q01DX009 (sc), vehicle: olive oil, sesame oil, peanut oil", "result": "2 of 3"}, {"measurement": "survivor count", "setting": "dose: 200.0 mg/kg/injection, schedule: Q01DX009 (sc), vehicle: olive oil, sesame oil, peanut oil", "result": "0 of 3"}, {"measurement": "survivor count", "setting": "dose: 400.0 mg/kg/injection, schedule: Q01DX009 (sc), vehicle: olive oil, sesame oil, peanut oil", "result": "0 of 3"}, {"measurement": "survivor count", "setting": "dose: 400.0 mg/kg/injection, schedule: Q04DX002 (sc), vehicle: olive oil, sesame oil, peanut oil", "result": "3 of 3"}]}
{"molecule": "CC1(Br)OC(=O)C(C)(Br)OC1=O", "note": "(stereo unspecified)", "values": [{"measurement": "survivor count", "setting": "[5]", "result": "4 of 6"}]}
{"molecule": "CCCCNC(c1ccccc1)C(Cl)c1ccccc1", "note": "(stereo unspecified)", "values": [{"measurement": "survivor count", "setting": "[4]", "result": "2 of 6"}]}
{"molecule": "CC(C)C(NC(=O)NCCCl)c1ccccc1", "note": "(stereo unspecified)", "values": [{"measurement": "survivor count", "setting": "[4]", "result": "3 of 6"}]}
{"molecule": "CC1(/C=N\\NC(=O)CCCC(=O)N/N=C/C2(C)CCC=CO2)CCC=CO1", "note": "(stereo unspecified)", "values": [{"measurement": "survivor count", "setting": "[6]", "result": "4 of 4"}]}
{"molecule": "N#CC(C#N)=Cc1c[nH]c2ccccc12", "values": [{"measurement": "survivor count", "setting": "dose: 400.0 mg/kg/injection, schedule: Q04DX003 (ip), vehicle: saline with Tween-80", "result": "6 of 6"}]}
{"molecule": "CCCCCCCCCCCC(=O)N(C)CC(=O)O", "values": [{"measurement": "survivor count", "setting": "[6]", "result": "3 of 6"}, {"measurement": "survivor count", "setting": "dose: 400.0 mg/kg/injection, schedule: Q01DX001 (ip), vehicle: saline", "result": "0 of 6"}]}
{"molecule": "O=C(O)COc1cc(F)c([N+](=O)[O-])cc1[N+](=O)[O-]", "values": [{"measurement": "survivor count", "setting": "dose: 400.0 mg/kg/injection, schedule: Q04DX002 (ip), vehicle: Klucel (hydroxypropylcellulose) (HPC)", "result": "1 of 3"}]}
{"molecule": "CCN=C(c1ccc(NC(=O)c2ccc(C(=O)Nc3ccc(C(=NCC)N(CC)C(=O)C(F)(F)C(F)(F)C(F)(F)F)cc3)cc2)cc1)N(CC)C(=O)C(F)(F)C(F)(F)C(F)(F)F", "values": [{"measurement": "T/C", "setting": "dose: 3.75 mg/kg/injection, schedule: Q01DX015 (ip), vehicle: methylcellulose (MC)", "result": "132 % of control"}, {"measurement": "T/C", "setting": "dose: 6.0 mg/kg/injection, schedule: Q01DX015 (ip), vehicle: methylcellulose (MC)", "result": "139 % of control"}, {"measurement": "survivor count", "setting": "dose: 30.0 mg/kg/injection, schedule: Q01DX015 (ip), vehicle: methylcellulose (MC)", "result": "0 of 6"}, {"measurement": "survivor count", "setting": "dose: 62.0 mg/kg/injection, schedule: Q01DX015 (ip), vehicle: methylcellulose (MC)", "result": "0 of 6"}, {"measurement": "survivor count", "setting": "dose: 125.0 mg/kg/injection, schedule: Q01DX015 (ip), vehicle: methylcellulose (MC)", "result": "0 of 6"}, {"measurement": "survivor count", "setting": "dose: 250.0 mg/kg/injection, schedule: Q01DX015 (ip), vehicle: methylcellulose (MC)", "result": "0 of 6"}, {"measurement": "survivor count", "setting": "dose: 500.0 mg/kg/injection, schedule: Q01DX015 (ip), vehicle: methylcellulose (MC)", "result": "0 of 6"}]}
{"molecule": "Cc1ccc(C(O)C(=O)O)cc1", "note": "(stereo unspecified)", "values": [{"measurement": "survivor count", "setting": "dose: 300.0 mg/kg/injection, schedule: Q01DX001 (ip), vehicle: acetone", "result": "1 of 6"}]}
{"molecule": "Cc1ccc(CN=C=S)cc1", "values": [{"measurement": "survivor count", "setting": "dose: 25.0 mg/kg/injection, schedule: Q01DX009 (ip), vehicle: saline with Tween-80", "result": "1 of 3"}, {"measurement": "survivor count", "setting": "dose: 50.0 mg/kg/injection, schedule: Q01DX009 (ip), vehicle: saline with Tween-80", "result": "2 of 6"}, {"measurement": "survivor count", "setting": "[1]", "result": "0 of 6"}, {"measurement": "survivor count", "setting": "[2]", "result": "0 of 6"}, {"measurement": "survivor count", "setting": "[3]", "result": "0 of 6"}]}
{"molecule": "COc1ccccc1N=Nc1c(O)n(-c2ccccc2C)c(=S)n(-c2ccccc2OC)c1=O", "values": [{"measurement": "survivor count", "setting": "dose: 400.0 mg/kg/injection, schedule: Q01DX001 (ip), vehicle: Klucel (hydroxypropylcellulose) (HPC)", "result": "1 of 6"}]}
{"molecule": "O=C(N/C=C/NC(=O)NCc1ccco1)NCc1ccco1", "values": [{"measurement": "survivor count", "setting": "dose: 400.0 mg/kg/injection, schedule: Q01DX009 (ip), vehicle: Klucel (hydroxypropylcellulose) (HPC)", "result": "6 of 6"}]}
{"molecule": "Cc1cc([N+](=O)[O-])c(C)cc1O", "values": [{"measurement": "survivor count", "setting": "dose: 300.0 mg/kg/injection, schedule: Q01DX001 (ip), vehicle: saline", "result": "0 of 6"}]}
{"molecule": "CCOC(=O)c1ccc(NC(=O)Nc2nccs2)cc1", "values": [{"measurement": "T/C", "setting": "[2]", "result": "125 % of control [5 of 6 alive]"}, {"measurement": "survivor count", "setting": "[3]", "result": "2 of 6"}]}
{"molecule": "COC(OC)c1[nH]c(=O)[nH]c(=O)c1F.[Hg]", "values": [{"measurement": "survivor count", "setting": "dose: 12.0 mg/kg/injection, schedule: Q01DX009 (ip), vehicle: saline", "result": "1 of 6"}, {"measurement": "survivor count", "setting": "[7]", "result": "2 of 6"}, {"measurement": "survivor count", "setting": "dose: 50.0 mg/kg/injection, schedule: Q04DX003 (ip), vehicle: saline", "result": "0 of 6"}]}
{"molecule": "COC1C(=O)CCC2(CO2)C1(O)C1(C)OC1CCC(C)C", "note": "(stereo unspecified)", "values": [{"measurement": "survivor count", "setting": "dose: 400.0 mg/kg/injection, schedule: Q01DX009 (ip), vehicle: acetone", "result": "1 of 6"}]}
{"molecule": "CCCCOC1CC2c3ccccc3C1c1cccc[n+]12", "note": "(stereo unspecified)", "values": [{"measurement": "survivor count", "setting": "[7]", "result": "1 of 6"}, {"measurement": "survivor count", "setting": "dose: 50.0 mg/kg/injection, schedule: Q01DX009 (ip), vehicle: saline", "result": "0 of 6 and 3 of 6"}]}
{"molecule": "CCNC(C)C", "values": [{"measurement": "survivor count", "setting": "dose: 200.0 mg/kg/injection, schedule: Q04DX003 (ip), vehicle: saline", "result": "2 of 6"}, {"measurement": "survivor count", "setting": "[5]", "result": "0 of 6"}]}
{"molecule": "COc1ccc(Cl)cc1NC(=O)/C=C/c1ccccc1", "values": [{"measurement": "survivor count", "setting": "[1]", "result": "3 of 3"}, {"measurement": "survivor count", "setting": "dose: 400.0 mg/kg/injection, schedule: Q01DX001 (ip), vehicle: saline with Tween-80", "result": "6 of 6"}, {"measurement": "survivor count", "setting": "[3]", "result": "6 of 6"}]}
{"molecule": "Cc1cc2c(C)c3cc(C)c(C)c(C)c3cc2c(C)c1C", "values": [{"measurement": "survivor count", "setting": "dose: 50.0 mg/kg/injection, schedule: Q01DX005 (ip), vehicle: water", "result": "1 of 6"}, {"measurement": "survivor count", "setting": "dose: 200.0 mg/kg/injection, schedule: Q01DX005 (ip), vehicle: water", "result": "3 of 6"}]}
